Measurements: patent US20250026792A1, “SELF-ASSEMBLING PEPTIDES WITH HYALURONIC ACID BINDING DOMAINS AND METHODS OF USE THEREOF” (Northwestern University, priority 2022, published 2025)
Not every detail of the peptide structures is certain; ends, links or a residue may be inferred. Where a SMILES comes first, the peptide text is derived from it. The star is where a group is joined. Biotin = O=C1N[C@H]2[C@H](CS[C@H]2CCCCC(=O)*)N1

Tests used:
[1] = Concentration-dependent peptide binding to hyaluronic acid coating (biotin-streptavidin fluorescence); details: 0-10 mg/ml peptide, PBS pH 7.4, 37° C., HA coating 10 μg/cm^2, FIG. 3
Method: Peptides were incubated 24 hours at 37° C. Coatings (10 μg/cm^2) were previously dried overnight in milli-Q water. Overall significance was assessed using analysis of variance, with Tukey's multiple comparison post-hoc analysis between 1-scrm and experimental groups where n=4.
N-termini biotinylated peptides were added to coated plates at 0, 1, 2.5, 5 and 10 mg/ml overnight at 37° C. in phosphate buffered saline (PBS), pH 7.4, after which the plates were washed three times with PBS.

[2] = 1H NMR of supernatant of peptide-hyaluronic acid mixtures (loss of HA and peptide from solution); type: binding
Method: FIGS. 7A-7C show Nuclear magnetic resonant (NMR) proton spectra of representative (i) hyaluronic acid peaks and (ii) biotinyl peptide peaks and for (FIG. 7A) mPEP35, (FIG. 7B) 1-scrm, and (FIG. 7C) 17x-3 in 25 mM sodium acetate buffer at pH 5.2. Samples represent supernatant (soluble component) of mixtures with 5 mg/mL HA in variable peptide mixture of 1.25, 2.5. and 5 mg/mL.
Peptides and HA were suspended in 25 mM sodium acetate buffer (pH 5.2), made up from 19 mM sodium acetate-d3, 6 mM acetic acid-d4, 10% D2O, and 1 mg/ml DSS-D6. All samples were centrifuged at 21,000 G to remove precipitate and the supernatant was collected for analysis, as only the liquid suspension could be used. NMR spectra were collected on an Avance NEO 600 MHz spectrometer at 298K with excitation sculpting used to suppress the water signal. Number of scans and receiver gain were identical for all NMR spectra.
As higher peptide binding was accompanied by apparent gel-like structure on the substrate, the binding event may be characterized by the change in concentration of either peptide or HA remaining in the solution. ^1H NMR is an ideal method for measuring changes in concentration in solution. It provides atom-specific information that can be used to distinguish signals of biotinylated peptides (6.4 ppm) from those of hyaluronic acid (3.5 ppm) as presented in FIG. 7. Sodium acetate (pH 5.2) was chosen as the buffer since it provides better spectral quality of the amide signals than pH 7.4 buffer. Focus was placed on characterizing the binding of mPEP35, 1-scrm, and 17x-3, which reflect a positive control, a negative control, and a potent binder, respectively. Measurements were taken after centrifugation to remove gel that formed when peptide and HA are mixed. It should be noted that only HN peaks of the peptide show slight chemical shift perturbation upon addition of HA.

[3] = Circular dichroism (CD) of peptides; type: physicochemical; details: for Ellipticity ratio (222 nm/208 nm) / Ellipticity 208 nm / Ellipticity 222 nm: 1.25 mg/mL; for Ellipticity 208 nm / Ellipticity 222 nm: CD data given as [θ]M×10^−3; for CD wavelength minimum: 20 mM sodium cacodylate
Method: Data is presented in ellipticity ([θ]M×10^−3) as a function of spectral wavelength (λ).
Sodium cacodylate (SC), 20 mM pH 7.4, without and with 20% TFE was used to reduce phosphate related background signal and enhance detected structures. Circular dichroism (CD) data were collected in millidegrees, 0, and converted to molar ellipticity, [θ]M, and are expressed in units of deg×cm^2×dmol^−1. Scan speeds and digital integration times were 500 nm/min and 1 second, respectively. The data on the Y axis of the CD plots is [θ]M×10^−3. […] Consequently, CD signals are reported in the 190-260 nm range.

[4] = Transmission electron microscopy (TEM) of peptide nanostructures; type: physicochemical; details: PBS pH 7.4, 0.5% w/v, 30 minutes sonication, 24 hrs at 37° C.
Method: The sample and stain were filter-dried in between steps. Samples were collected 24 hours at 37° C. after 30 minutes of sonication. All TEM was performed on a Philips FEI Technai Spirit G2 electron microscope. Peptides were incubated in both PBS and SC.

[5] = 20 mM Sodium Cacodylate, 20% TFE

For `CC[C@H](C)[C@H](NC(=O)[C@H](CCCCN)NC(=O)[C@H](CCC(N)=O)NC(=O)[C@H](CCCCN)NC(=O)[C@H](CC(C)C)NC(=O)CCCC[C@@H]1SC[C@@H]2NC(=O)N[C@@H]21)C(=O)N[C@@H](CCCCN)C(=O)N[C@@H](Cc1c[nH]cn1)C(=O)N[C@H](C(=O)N[C@H](C(=O)N[C@@H](CCCCN)C(=O)N[C@@H](CC(C)C)C(=O)N[C@@H](CCCCN)C(=O)N[C@H](C(=O)N[C@H](C(=O)N[C@H](C(=O)N[C@@H](CCCCN)C(=O)N[C@@H](CC(C)C)C(=O)N[C@@H](CCCNC(=N)N)C(=O)N[C@@H](CO)C(=O)N[C@@H](CCC(N)=O)C(=O)N[C@@H](CC(C)C)C(=O)N[C@H](C(=O)N[C@@H](CCCCN)C(=O)N[C@@H](CCCNC(=N)N)C(=O)N[C@@H](CCCCN)C(=O)N[C@@H](CCC(N)=O)C(=O)N[C@@H](CC(N)=O)C(=O)O)C(C)C)C(C)C)C(C)C)C(C)C)C(C)C)C(C)C` [mPEP35, reference compound] (Biotin-LKQKIKHVVKLKVVVKLRSQLVKRKQN-OH), the “binding to hyaluronic acid with increasing concentrations of peptide (fluorescence intensity)” value [1] was “moderately”, the “HA lost (area under the curve)” value ([2]; 5 mg/mL peptide, 5 mg/mL HA, supernatant) was 40% and the “HA peaks reduced approximately to” value ([2]; 1.25 and 2.5 mg/mL peptide, 5 mg/mL HA, sodium acetate pH 5.2, supernatant) was ~20%. The “pulled out of solution at most (printed: of the peptide)” value ([2]; in any condition) was “at most 40%”, the “Ellipticity ratio (222 nm/208 nm)” value ([3]; 20 mM Sodium Cacodylate) was 0.49 and the “Ellipticity 208 nm” value ([3]; 20 mM Sodium Cacodylate) was −105. The “Ellipticity 222 nm” value ([3]; 20 mM Sodium Cacodylate) was −51.9, the “Ellipticity ratio (222 nm/208 nm)” value [3, 5] was 0.92 and the “Ellipticity 208 nm” value [3, 5] was −232. The “Ellipticity 222 nm” value [3, 5] was −214, the “wavelength Minimum of CD profile” value ([3]; 20 mM Sodium Cacodylate, 20% TFE, 5.0 mg/mL) was 223 nm and the CD wavelength minimum ([3]; 1.25 mg/ml) was “less than 210 nm”. For the same molecule, the CD wavelength minimum ([3]; 2.5 mg/ml) was “greater than 210 nm” and the “TEM characterization, Phosphate Buffered Saline (i)” value [4] was “fibers containing a small number of striations (2 fibrils mostly and up to 5 in some cases) that go to form larger fibers”.
